The target of data set [1] is GST-S-HsfA2 (Arabidopsis thaliana Col-0) (UniProt J7G1E7). Put plainly: competition with a labelled probe. The following applies: unlabelled HRE reduced the complex on the HRE probe; EMSA: LightShift kit 1x binding buffer, 50 ng poly(dI-dC), 2.5% glycerol, 0.05% NP-40, 5 mM MgCl2, 100 ng protein, 1.5 ng probe, 30 min, room temperature; recombinant protein; protein details: N-terminal GST (pGEX-4T). (In general: A gel shift assay detects complexes by their altered migration in electrophoresis.)

Protein sequences, listed by entry. Tags and fused reporters are not part of them. Lines headed by an entry give the natural chain unless they say otherwise; changes in a name come on top.
UniProt O80982: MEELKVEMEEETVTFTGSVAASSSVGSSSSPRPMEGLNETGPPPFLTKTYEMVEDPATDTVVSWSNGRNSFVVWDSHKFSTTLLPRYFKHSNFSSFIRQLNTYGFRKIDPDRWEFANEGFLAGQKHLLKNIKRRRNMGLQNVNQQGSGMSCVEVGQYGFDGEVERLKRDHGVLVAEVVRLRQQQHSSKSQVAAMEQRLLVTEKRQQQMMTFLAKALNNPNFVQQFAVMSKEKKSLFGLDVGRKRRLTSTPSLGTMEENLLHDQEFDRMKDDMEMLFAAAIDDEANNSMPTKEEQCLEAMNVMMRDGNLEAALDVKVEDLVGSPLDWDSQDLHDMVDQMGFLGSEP

Data set [2] has the same target. In words: EMSA. The following applies: weak specific band, GST nonspecific band also present; EMSA: LightShift kit 1x binding buffer, 50 ng poly(dI-dC), 2.5% glycerol, 0.05% NP-40, 5 mM MgCl2, 100 ng protein, 1.5 ng probe, 30 min, room temperature; recombinant protein; protein details: N-terminal GST (pGEX-4T); label: 5' biotin.
The target in data set [3] is His6-HsfA2 (Arabidopsis thaliana Col-0) (UniProt O80982). In words: streptavidin-agarose pull-down. As to conditions: His6-HsfA2 prebound with GST-S-HsfA2 (4 or 12 hr); pull-down: 50 mM Tris-HCl pH 7.5, 100 mM NaCl, 0.1% Triton X-100, poly(dI-dC), 25 C; recombinant protein; protein details: His6 (pET-28a); label: 5' biotin.

The exact form of at least one protein or probe is not confirmed. For part of these data: The comparison behind a weaker result is the experiment's own reference, which may not be listed here.

For the sequence “GAAGAAGGAAGAAGGAAGAAG (double strand) [unlabelled 3xHRE competitor]”, the binding result in data set [1] was “binds”.

On to “GAAGAAGGAAGAAGGAAGAAG (double strand) [3xHRE probe]”, for which, in data set [2], the binding result is “binds”.

Regarding “TCGACTTCTAGAAGCTTCCAGAAATTAG (double strand) [HSE probe]”, in data set [3], the binding result is given as “binds more weakly”.

The values above are taken from paper PMC12582567.
